Results from US5447931A, “New therapeutic use of heterocyclylpiperazines as 5-HT3 agonists and new compounds” (Sanofi, priority 1992, dated 1995).

Tested on: 5-HT3 receptors
Assay: Bezold-Jarisch effect (reduction of heart rate) in the anesthetized rat, intravenous administration
Assay type: in vivo, Sprague-Dawley rats
Details: antagonist against the heart rate reduction by compounds of formula (I)

CC[C@@H](CO)NC(=O)[C@@H]1C=C2c3cccc4c3c(cn4C)C[C@H]2N(C)C1 [methysergide]
inhibition by antagonist of the Bezold-Jarisch effect evoked by compounds of formula (I): not inhibited
